Source: patent US20090158447A1, “TLR ligand and IL-1 Response-Injured Animal Model” (priority 2004, published 2009)
No constants are given. Whether binding was seen depends on the method and setting. For some assays here: Binding seen in cells or lysates may run through a third protein. Some results given as binding are weak or reduced against the parent protein; the word gives no strength.

Amino acid sequences for entries named in this document (tags omitted). Residues count along the entry.
UniProt P25799, residues 1-431: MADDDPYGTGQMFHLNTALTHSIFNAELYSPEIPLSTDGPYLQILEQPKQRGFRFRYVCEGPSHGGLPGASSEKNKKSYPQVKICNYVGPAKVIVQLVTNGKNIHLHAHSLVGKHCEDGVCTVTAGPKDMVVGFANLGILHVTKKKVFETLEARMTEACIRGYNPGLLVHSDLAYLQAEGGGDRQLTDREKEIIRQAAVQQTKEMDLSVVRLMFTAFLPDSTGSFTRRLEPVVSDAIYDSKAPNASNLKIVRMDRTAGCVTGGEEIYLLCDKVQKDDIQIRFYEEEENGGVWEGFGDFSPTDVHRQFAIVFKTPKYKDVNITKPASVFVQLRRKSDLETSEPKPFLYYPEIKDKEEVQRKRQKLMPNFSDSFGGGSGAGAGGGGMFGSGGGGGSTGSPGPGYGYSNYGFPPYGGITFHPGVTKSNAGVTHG

Legend:
[1] = target: p50 subunit of NF-κB (mouse) (UniProt P25799); assay: summary of the filing's own immunoprecipitation finding
[2] = target: p50 subunit of NF-κB (mouse) (UniProt P25799); assay: co-immunoprecipitation from peritoneal macrophage lysates, immunoblot with α-IκB-ζ

binding [1]: binds
binding [2]: binds
B1: IκB-ζ (protein, mouse, UniProt Q9EST8 1-728, looked up)
chain: MIVDKLLDDSRGGEGLLDAAGDCGLMTSPLNLAYFYGASPPSAPGAGDTGYLSAVPSAPGSPGSDSSDFSSTSSVSSCGAVESRPRGGARAERPQVEPHMGVGRQQRGPFQGVRVKNSVKELLLHIRSNKQKASGQPVDEFKTQSVNIEQLTDLKSAVSAVGKRKGPDPLSDGPVCKRPALLPSHFVTSPQTPTPGESMEDVRHSESKLDSSAALLQNIINIKNECNPVSLNTVQVSWMSPTVPQNSPRDQCQDFHGGQAFSPPQKYQPFQVSGSPQMMDQASMYQYSPQTQNMQQPPPLPPQQQHQQNYPHNSPLQFSPYSRMSQSPKYDSNLFDTHEPQFCTGQSFVSLLTGPGEPESLAVPVPAPTSIPPQTETQLQTFSLMPSNACEAVVGVHDVGSHSLGTSLSLQNIMGSPMNTTQLGKSFFQWQVEQEESKLANIPQDQFLARDGDGDTFLHIAVAQGRRALSYVLARKMNALHMLDIKEHNGQSAFQVAVAANQHLIVQDLVNLGAQVNTTDCWGRTPLHVCAEKGHSQVLQAIQKGAVRSNQFVDLEATNYDGLTPLHCAVVAHNAVVHELQRNRQSHSPEVQDLLLRNKSLVDTIKCLIQMGAAVEAKDRKSGRTALHLAAEEANLELIRLFLELPSCLSFVNAKAYNGNTALHVAASLQYRVTQLDAVRLLMRKGADPSTRNLENEQPVHLVPDGPVGEQIRRILKGKSIQQRAPPY
